This is an account of results in the supplement of paper PMC6411743.

Protein sequences, listed by entry. Tags and fused reporters are not part of them. Lines headed by an entry give the natural chain unless they say otherwise; changes in a name come on top.
UniProt C4AMC7: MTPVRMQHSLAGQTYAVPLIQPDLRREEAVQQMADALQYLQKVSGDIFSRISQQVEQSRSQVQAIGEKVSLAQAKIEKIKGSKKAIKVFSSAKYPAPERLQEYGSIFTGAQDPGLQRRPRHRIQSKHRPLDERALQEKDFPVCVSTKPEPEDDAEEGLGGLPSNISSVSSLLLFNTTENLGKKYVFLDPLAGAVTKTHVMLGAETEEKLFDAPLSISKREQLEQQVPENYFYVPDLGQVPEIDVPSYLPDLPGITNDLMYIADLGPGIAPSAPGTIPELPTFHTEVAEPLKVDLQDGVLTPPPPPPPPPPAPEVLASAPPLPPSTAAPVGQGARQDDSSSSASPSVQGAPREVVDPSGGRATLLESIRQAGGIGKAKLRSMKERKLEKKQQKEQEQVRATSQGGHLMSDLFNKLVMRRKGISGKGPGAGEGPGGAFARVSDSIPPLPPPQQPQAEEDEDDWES
UniProt P49917: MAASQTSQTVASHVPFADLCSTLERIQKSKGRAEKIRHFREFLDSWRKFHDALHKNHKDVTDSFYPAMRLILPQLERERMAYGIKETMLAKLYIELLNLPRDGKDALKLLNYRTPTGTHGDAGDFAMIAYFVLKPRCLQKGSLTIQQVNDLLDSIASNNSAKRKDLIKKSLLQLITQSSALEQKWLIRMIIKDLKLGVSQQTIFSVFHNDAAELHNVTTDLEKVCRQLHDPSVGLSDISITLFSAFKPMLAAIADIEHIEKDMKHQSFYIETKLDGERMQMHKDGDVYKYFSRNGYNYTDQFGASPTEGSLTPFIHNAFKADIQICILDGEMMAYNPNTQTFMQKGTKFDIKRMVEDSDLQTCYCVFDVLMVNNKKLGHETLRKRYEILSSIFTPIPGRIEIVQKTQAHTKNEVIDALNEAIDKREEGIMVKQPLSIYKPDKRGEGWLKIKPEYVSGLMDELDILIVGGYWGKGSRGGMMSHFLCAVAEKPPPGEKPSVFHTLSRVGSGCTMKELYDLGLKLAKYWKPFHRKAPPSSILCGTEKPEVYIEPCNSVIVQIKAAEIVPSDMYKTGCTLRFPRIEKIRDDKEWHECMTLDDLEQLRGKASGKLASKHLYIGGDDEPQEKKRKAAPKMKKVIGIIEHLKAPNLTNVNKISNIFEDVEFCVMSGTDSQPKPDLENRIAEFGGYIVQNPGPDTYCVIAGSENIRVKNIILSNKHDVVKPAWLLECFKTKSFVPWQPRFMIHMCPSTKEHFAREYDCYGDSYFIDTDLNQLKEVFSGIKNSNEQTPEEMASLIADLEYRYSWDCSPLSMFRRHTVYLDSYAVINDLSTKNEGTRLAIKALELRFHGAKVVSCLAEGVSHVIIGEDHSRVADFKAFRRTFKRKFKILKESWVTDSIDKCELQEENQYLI
UniProt Q86XP1: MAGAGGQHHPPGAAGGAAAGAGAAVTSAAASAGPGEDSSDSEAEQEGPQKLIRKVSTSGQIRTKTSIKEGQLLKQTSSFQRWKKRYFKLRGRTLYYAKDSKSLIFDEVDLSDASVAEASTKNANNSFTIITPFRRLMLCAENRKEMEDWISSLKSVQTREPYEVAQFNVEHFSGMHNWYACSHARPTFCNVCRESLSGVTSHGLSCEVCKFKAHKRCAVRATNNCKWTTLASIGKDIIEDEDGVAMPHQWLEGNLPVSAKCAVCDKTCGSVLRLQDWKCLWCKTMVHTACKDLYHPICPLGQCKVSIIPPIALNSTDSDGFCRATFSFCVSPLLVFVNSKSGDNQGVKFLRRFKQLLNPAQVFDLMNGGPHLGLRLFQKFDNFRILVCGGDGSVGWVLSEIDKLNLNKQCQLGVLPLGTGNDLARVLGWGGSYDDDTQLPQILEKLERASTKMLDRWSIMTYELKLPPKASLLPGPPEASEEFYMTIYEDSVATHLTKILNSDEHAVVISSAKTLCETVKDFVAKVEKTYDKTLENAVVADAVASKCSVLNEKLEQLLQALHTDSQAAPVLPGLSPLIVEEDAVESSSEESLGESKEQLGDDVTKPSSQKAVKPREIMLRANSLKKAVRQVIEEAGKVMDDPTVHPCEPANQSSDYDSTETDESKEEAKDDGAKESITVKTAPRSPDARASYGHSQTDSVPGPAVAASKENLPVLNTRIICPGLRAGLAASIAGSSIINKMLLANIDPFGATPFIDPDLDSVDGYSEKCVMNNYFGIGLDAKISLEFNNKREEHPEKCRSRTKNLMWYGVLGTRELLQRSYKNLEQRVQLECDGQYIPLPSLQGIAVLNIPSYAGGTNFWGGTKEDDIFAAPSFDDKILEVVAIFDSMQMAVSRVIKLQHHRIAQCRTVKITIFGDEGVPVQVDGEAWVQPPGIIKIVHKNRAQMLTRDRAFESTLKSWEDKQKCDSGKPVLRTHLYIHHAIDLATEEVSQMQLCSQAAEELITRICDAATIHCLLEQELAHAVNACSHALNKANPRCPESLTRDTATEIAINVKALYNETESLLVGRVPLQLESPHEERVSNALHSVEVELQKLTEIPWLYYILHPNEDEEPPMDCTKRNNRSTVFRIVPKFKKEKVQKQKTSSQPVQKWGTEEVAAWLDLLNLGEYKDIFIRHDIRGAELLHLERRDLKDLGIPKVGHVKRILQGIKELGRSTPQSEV
UniProt Q96JP5: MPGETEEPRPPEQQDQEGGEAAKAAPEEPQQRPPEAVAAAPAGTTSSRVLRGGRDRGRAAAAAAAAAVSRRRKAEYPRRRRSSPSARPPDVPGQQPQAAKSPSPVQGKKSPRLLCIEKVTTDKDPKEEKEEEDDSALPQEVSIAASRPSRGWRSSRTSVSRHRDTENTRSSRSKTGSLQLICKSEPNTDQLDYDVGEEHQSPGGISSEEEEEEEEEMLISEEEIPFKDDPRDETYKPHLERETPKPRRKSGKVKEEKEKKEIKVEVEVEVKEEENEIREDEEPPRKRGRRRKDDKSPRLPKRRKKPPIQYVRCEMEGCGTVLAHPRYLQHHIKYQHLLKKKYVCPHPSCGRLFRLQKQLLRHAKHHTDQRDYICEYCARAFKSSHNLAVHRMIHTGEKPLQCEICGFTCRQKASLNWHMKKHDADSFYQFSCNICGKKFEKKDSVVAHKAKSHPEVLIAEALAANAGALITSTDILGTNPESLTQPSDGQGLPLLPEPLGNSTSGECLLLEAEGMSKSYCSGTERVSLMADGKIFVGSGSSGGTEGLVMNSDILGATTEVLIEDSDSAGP
UniProt Q5T8I9: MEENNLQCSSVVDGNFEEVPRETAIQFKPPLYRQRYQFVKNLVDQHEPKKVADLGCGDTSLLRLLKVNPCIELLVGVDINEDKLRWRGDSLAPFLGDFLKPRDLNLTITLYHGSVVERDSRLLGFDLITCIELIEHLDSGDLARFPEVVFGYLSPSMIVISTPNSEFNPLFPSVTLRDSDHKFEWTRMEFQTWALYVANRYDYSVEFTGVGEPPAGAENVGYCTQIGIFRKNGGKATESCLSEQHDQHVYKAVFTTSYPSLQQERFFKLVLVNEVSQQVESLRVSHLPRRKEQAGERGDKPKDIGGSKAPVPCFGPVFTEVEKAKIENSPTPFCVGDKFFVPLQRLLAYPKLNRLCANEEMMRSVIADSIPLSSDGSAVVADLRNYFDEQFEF
UniProt Q9H3P2, whole entry: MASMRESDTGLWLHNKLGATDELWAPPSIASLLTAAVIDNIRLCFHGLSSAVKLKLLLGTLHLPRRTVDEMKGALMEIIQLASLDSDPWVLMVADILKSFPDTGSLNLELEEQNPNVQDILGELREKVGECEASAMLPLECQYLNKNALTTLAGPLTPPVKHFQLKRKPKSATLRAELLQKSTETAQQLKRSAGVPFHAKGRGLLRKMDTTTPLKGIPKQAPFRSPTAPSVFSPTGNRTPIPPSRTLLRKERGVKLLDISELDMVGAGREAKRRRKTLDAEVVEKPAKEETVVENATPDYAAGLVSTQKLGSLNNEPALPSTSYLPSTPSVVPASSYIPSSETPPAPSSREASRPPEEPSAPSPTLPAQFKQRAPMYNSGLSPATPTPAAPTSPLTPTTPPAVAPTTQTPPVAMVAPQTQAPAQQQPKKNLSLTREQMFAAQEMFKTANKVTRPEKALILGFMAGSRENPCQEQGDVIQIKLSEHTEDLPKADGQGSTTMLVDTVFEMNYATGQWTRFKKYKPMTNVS
UniProt P39656: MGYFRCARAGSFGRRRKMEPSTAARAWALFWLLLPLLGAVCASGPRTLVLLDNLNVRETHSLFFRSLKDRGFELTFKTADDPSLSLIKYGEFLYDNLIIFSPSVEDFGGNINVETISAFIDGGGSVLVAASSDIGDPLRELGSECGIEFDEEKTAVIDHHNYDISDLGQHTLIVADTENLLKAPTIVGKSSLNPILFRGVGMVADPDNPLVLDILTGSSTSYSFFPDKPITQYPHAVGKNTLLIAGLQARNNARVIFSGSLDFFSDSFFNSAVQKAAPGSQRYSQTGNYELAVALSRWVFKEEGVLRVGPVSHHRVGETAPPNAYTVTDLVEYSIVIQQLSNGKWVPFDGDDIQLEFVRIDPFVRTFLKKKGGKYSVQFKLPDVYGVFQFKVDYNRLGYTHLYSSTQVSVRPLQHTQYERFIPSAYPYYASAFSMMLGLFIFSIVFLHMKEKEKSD
UniProt Q9UHJ6: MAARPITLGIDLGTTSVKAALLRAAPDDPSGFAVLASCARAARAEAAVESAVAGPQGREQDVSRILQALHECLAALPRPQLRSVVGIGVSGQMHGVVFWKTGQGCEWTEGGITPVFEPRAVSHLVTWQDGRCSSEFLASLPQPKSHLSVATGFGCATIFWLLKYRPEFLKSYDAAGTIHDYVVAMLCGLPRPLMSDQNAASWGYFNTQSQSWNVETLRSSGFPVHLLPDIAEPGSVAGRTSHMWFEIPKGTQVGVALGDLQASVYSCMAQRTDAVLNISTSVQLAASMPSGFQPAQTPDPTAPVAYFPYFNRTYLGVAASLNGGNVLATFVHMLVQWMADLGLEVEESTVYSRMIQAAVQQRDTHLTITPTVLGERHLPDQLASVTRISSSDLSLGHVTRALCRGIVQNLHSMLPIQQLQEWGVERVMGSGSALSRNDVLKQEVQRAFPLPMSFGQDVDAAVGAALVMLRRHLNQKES
UniProt A0JNW5: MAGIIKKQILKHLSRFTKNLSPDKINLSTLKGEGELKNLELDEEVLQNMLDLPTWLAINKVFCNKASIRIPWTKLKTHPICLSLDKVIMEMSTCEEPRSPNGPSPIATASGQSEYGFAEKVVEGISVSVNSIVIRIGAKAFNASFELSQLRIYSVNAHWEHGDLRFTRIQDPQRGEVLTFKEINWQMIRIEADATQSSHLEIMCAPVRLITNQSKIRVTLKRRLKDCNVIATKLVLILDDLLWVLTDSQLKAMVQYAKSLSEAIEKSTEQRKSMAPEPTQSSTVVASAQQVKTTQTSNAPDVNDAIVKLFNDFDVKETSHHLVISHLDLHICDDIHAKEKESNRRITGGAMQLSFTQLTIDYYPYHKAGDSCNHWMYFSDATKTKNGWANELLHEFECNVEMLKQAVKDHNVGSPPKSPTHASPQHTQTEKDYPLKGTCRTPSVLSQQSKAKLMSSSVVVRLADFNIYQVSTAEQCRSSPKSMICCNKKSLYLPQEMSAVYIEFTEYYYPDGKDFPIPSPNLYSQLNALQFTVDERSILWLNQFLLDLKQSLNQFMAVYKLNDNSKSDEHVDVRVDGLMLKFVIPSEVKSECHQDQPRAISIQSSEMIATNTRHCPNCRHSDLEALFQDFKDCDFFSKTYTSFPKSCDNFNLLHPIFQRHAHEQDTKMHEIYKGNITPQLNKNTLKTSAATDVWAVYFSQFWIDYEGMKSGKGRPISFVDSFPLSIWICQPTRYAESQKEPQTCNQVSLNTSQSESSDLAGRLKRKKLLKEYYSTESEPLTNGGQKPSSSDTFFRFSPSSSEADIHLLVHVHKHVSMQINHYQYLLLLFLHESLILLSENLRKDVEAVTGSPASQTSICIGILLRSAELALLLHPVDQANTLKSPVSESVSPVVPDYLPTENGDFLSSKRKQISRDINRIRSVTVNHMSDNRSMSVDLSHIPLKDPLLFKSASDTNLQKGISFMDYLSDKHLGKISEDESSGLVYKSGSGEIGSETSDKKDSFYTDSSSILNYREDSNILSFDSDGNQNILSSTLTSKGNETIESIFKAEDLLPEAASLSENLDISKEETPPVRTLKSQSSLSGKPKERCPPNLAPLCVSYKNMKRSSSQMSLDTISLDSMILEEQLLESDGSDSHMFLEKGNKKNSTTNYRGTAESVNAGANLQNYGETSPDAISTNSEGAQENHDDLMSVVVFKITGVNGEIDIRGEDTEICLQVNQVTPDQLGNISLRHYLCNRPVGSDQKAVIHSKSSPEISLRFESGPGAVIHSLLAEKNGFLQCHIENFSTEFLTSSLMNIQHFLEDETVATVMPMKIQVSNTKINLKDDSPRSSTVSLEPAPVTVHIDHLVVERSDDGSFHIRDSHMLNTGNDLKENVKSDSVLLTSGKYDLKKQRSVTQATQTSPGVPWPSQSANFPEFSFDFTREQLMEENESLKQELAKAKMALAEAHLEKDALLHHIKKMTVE

± gives the standard deviation of the averaged measurements. The list shows a part of the results.

Compound in one test: Nc1nc2c(ncn2[C@@H]2O[C@H](COP(=O)(O)OP(=O)(O)OP(=O)(O)O)[C@@H](O)[C@H]2O)c(=O)[nH]1 [guanosine triphosphate]
As to the kind of experiment: NP40-soluble protein abundance relative to vehicle (solubility fold change) (ratio); higher = more soluble protein in presence of GTP. The note with it: concentration: 0.5mM. The procedure, abridged:
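Eight concentrations, 0.1 to 10 mM, were tested on Jurkat crude lysate for 10 min at room temperature and then 3 min at 37 °C, in three independent experiments. The lysate was solubilised with 0.8% NP40 and benzonase, ultracentrifuged, and the supernatant TMT-labelled for LC-MS/MS. Each value is the fold change against the detergent-processed vehicle in its own replicate, from vsn-normalised intensities.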
For “A0A096LP75|C4AMC7 and related entries (UniProt Q6VEQ5+C4AMC7)”, the NP40-soluble protein abundance was determined as 0.905 ± 0.034.
With A0A140T9R1|O75955 (UniProt O75955), the NP40-soluble protein abundance was 1.09 ± 0.021.
Still for that read-out and setting: as for “A0A0A0MQS0|A8MW92 and related entries (UniProt A8MW92)”, the figure is 1.03 ± 0.028; as for A0A0C4DGT4|Q643R3 (UniProt Q643R3), 0.96 ± 0.066.
The same measure, in the same setting: for A0A0C4DGV9|P49917 (UniProt P49917) the value was 1.18 ± 0.14.
Consider “A0A087X127|E7EWM3 and related entries (UniProt Q8NF64)”, for which the NP40-soluble protein abundance was 1.05 ± 0.11.
The same measure, in the same setting: for CCDC88B (UniProt A6NC98) the value was 0.974 ± 0.059; for “A0A0A0MRC4|A0A0A0MSK4|Q86YR5 and related entries (UniProt Q86YR5)”, 1.02 ± 0.088; for “A0A087WZ62|Q9H6U8 and related entries (UniProt Q9H6U8)”, 0.971 ± 0.021.
As to “A0A0D9SFR6|Q86XP1 and related entries (UniProt Q86XP1)”, the NP40-soluble protein abundance was found to be 1.02 ± 0.13.
Same read-out and setting: for A0A087WXN9|Q765P7 (UniProt Q765P7) the value was 1.07 ± 0.17.
Still for that read-out and setting: for “A0A5E8 and related entries (UniProt Q99501)” the value was 1.17 ± 0.18; for “A0A0A6YYC7|Q96JP5 and related entries (UniProt Q96JP5)”, 0.891 ± 0.068.
Turning to A0A0A0MRN1|Q5T8I9 (UniProt Q5T8I9), the NP40-soluble protein abundance turned out to be 0.965 ± 0.1.
Still for that read-out and setting: as for UniProt A2RTX5 and related entries, the figure is 1.26 ± 0.11; as for “A0A0A0MRE5|Q9ULH1 and related entries (UniProt Q9ULH1)”, 1.03 ± 0.026; as for “A0A0A0MQU0|K7EIR0 and related entries (UniProt Q9BV38)”, 0.977 ± 0.059.
On the same count and under the same terms, as for “A6NCC9 and related entries (UniProt Q9Y5U2)”, the figure is 0.978 ± 0.14.
The same measure, in the same setting: for A0A096LPA2|P30566 (UniProt P30566) the value was 1.01 ± 0.066; for “A0A0A0MS45|J3KNI1 and related entries (UniProt Q9H9E3)”, 1.02 ± 0.042; for A0A0C4DFX9|Q9H3P2 (UniProt Q9H3P2), 0.922 ± 0.033.
With “A0A087X0H7|Q8NEL9 and related entries (UniProt Q8NEL9)”, the NP40-soluble protein abundance turned out to be 1.05 ± 0.067.
Same read-out and setting: for A0A140T9T7|Q03518 (UniProt Q03518) the value was 1.032 ± 0.0097.
On the same count and under the same terms, for “A0A0D9SFK2|Q92614 and related entries (UniProt Q92614)” the value was 1.05 ± 0.058; for UniProt A3KMH1 and related entries, 1.1 ± 0.1; for “A0A0A0MSQ0|H7C4N2 and related entries (UniProt P13797)”, 1.02 ± 0.04.
Still for that read-out and setting: for A0A0X1KG71|Q8WX92 (UniProt Q8WX92) the value was 0.964 ± 0.014.
Consider “A0A0C4DGS5|Q08379 and related entries (UniProt Q08379)”, for which the NP40-soluble protein abundance turned out to be 0.935 ± 0.062.
On to “A0A087WZ97|A0A087WZK6|A0A087X2C2|Q5T7M9 (UniProt Q5T7M9)”, for which the NP40-soluble protein abundance is 1.06 ± 0.017.
Still for that read-out and setting: as for A0A087WYB4|Q9UJZ1 (UniProt Q9UJZ1), the figure is 0.972 ± 0.053.
The same measure, in the same setting: as for “A0A087X0R0|F5H6S1 and related entries (UniProt O15550)”, the figure is 1.02 ± 0.091; as for A0A0C4DGS1|P39656 (UniProt P39656), 1.02 ± 0.076.
Still for that read-out and setting: for “A0A087WXC5|E7ESZ7 and related entries (UniProt O95299)” the value was 1.06 ± 0.09; for A0A0B4J2A0|Q9UHJ6 (UniProt Q9UHJ6), 0.985 ± 0.08; for A0A0C4DGH6|A0JNW5 (UniProt A0JNW5), 0.988 ± 0.094.
For the target “A0A0A0MQT4|Q5QP82 and related entries (UniProt Q5QP82)”, the NP40-soluble protein abundance was 0.9643 ± 0.0031.
On the same count and under the same terms, as for “A0A0G2JLB3|A0A0G2JNZ5|P04062 and related entries (UniProt P04062)”, the figure is 0.843 ± 0.15; as for UniProt A5PLN9 and related entries, 1.04 ± 0.052.

The same test, now with this note: concentration: 1mM.
On to “A0A096LP75|C4AMC7 and related entries (UniProt Q6VEQ5+C4AMC7)”, for which the NP40-soluble protein abundance stood at 1.06 ± 0.091.
Same read-out and setting: as for A0A140T9R1|O75955 (UniProt O75955), the figure is 1.07 ± 0.045.
On the same count and under the same terms, for “A0A0A0MQS0|A8MW92 and related entries (UniProt A8MW92)” the value was 1.15 ± 0.082.
The same measure, in the same setting: for A0A0C4DGT4|Q643R3 (UniProt Q643R3) the value was 0.994 ± 0.057; for A0A0C4DGV9|P49917 (UniProt P49917), 1.17 ± 0.18.
For “A0A087X127|E7EWM3 and related entries (UniProt Q8NF64)”, the NP40-soluble protein abundance came to 1.06 ± 0.14.
CCDC88B (UniProt A6NC98): the NP40-soluble protein abundance was 1.02 ± 0.066.
As for “A0A0A0MRC4|A0A0A0MSK4|Q86YR5 and related entries (UniProt Q86YR5)”, the NP40-soluble protein abundance is 0.942 ± 0.018.
On the same count and under the same terms, for “A0A087WZ62|Q9H6U8 and related entries (UniProt Q9H6U8)” the value was 1.03 ± 0.21; for “A0A0D9SFR6|Q86XP1 and related entries (UniProt Q86XP1)”, 1.01 ± 0.13; for A0A087WXN9|Q765P7 (UniProt Q765P7), 1.09 ± 0.2.
With “A0A5E8 and related entries (UniProt Q99501)”, the NP40-soluble protein abundance was found to be 1.21 ± 0.1.
Take “A0A0A6YYC7|Q96JP5 and related entries (UniProt Q96JP5)”: the NP40-soluble protein abundance was 0.975 ± 0.098.
The same measure, in the same setting: for A0A0A0MRN1|Q5T8I9 (UniProt Q5T8I9) the value was 0.903 ± 0.15; for UniProt A2RTX5 and related entries, 1.25 ± 0.11; for “A0A0A0MRE5|Q9ULH1 and related entries (UniProt Q9ULH1)”, 1.08 ± 0.083.
Still for that read-out and setting: for “A0A0A0MQU0|K7EIR0 and related entries (UniProt Q9BV38)” the value was 1 ± 0.027; for “A6NCC9 and related entries (UniProt Q9Y5U2)”, 1.19 ± 0.12.
The same measure, in the same setting: for A0A096LPA2|P30566 (UniProt P30566) the value was 0.896 ± 0.033; for “A0A0A0MS45|J3KNI1 and related entries (UniProt Q9H9E3)”, 1.05 ± 0.043; for A0A0C4DFX9|Q9H3P2 (UniProt Q9H3P2), 0.989 ± 0.04.
In the case of “A0A087X0H7|Q8NEL9 and related entries (UniProt Q8NEL9)”, the NP40-soluble protein abundance worked out at 0.974 ± 0.14.
Regarding A0A140T9T7|Q03518 (UniProt Q03518), the NP40-soluble protein abundance came out at 1.01 ± 0.05.
Same read-out and setting: for “A0A0D9SFK2|Q92614 and related entries (UniProt Q92614)” the value was 1.02 ± 0.05; for UniProt A3KMH1 and related entries, 0.992 ± 0.094.
For “A0A0A0MSQ0|H7C4N2 and related entries (UniProt P13797)”, the NP40-soluble protein abundance stood at 0.953 ± 0.054.
The same measure, in the same setting: for A0A0X1KG71|Q8WX92 (UniProt Q8WX92) the value was 0.9785 ± 0.0083; for “A0A0C4DGS5|Q08379 and related entries (UniProt Q08379)”, 0.998 ± 0.08.
On the same count and under the same terms, as for “A0A087WZ97|A0A087WZK6|A0A087X2C2|Q5T7M9 (UniProt Q5T7M9)”, the figure is 1.14 ± 0.1; as for A0A087WYB4|Q9UJZ1 (UniProt Q9UJZ1), 1.01 ± 0.026; as for “A0A087X0R0|F5H6S1 and related entries (UniProt O15550)”, 1.1 ± 0.046.
In the case of A0A0C4DGS1|P39656 (UniProt P39656), the NP40-soluble protein abundance is 0.921 ± 0.02.
On the same count and under the same terms, for “A0A087WXC5|E7ESZ7 and related entries (UniProt O95299)” the value was 1.03 ± 0.064; for A0A0B4J2A0|Q9UHJ6 (UniProt Q9UHJ6), 0.981 ± 0.086.
On the same count and under the same terms, as for A0A0C4DGH6|A0JNW5 (UniProt A0JNW5), the figure is 1.08 ± 0.17; as for “A0A0A0MQT4|Q5QP82 and related entries (UniProt Q5QP82)”, 0.934 ± 0.015.
On the same count and under the same terms, for “A0A0G2JLB3|A0A0G2JNZ5|P04062 and related entries (UniProt P04062)” the value was 0.936 ± 0.086.
For the target UniProt A5PLN9 and related entries, the NP40-soluble protein abundance was found to be 0.99 ± 0.041.
